Laboratory results: EP1141005B1 (Angiogenetics Sweden AB, dated 2007)

Protein sequences, listed by entry. Tags and fused reporters are not part of them.
UniProt Q16665, whole entry: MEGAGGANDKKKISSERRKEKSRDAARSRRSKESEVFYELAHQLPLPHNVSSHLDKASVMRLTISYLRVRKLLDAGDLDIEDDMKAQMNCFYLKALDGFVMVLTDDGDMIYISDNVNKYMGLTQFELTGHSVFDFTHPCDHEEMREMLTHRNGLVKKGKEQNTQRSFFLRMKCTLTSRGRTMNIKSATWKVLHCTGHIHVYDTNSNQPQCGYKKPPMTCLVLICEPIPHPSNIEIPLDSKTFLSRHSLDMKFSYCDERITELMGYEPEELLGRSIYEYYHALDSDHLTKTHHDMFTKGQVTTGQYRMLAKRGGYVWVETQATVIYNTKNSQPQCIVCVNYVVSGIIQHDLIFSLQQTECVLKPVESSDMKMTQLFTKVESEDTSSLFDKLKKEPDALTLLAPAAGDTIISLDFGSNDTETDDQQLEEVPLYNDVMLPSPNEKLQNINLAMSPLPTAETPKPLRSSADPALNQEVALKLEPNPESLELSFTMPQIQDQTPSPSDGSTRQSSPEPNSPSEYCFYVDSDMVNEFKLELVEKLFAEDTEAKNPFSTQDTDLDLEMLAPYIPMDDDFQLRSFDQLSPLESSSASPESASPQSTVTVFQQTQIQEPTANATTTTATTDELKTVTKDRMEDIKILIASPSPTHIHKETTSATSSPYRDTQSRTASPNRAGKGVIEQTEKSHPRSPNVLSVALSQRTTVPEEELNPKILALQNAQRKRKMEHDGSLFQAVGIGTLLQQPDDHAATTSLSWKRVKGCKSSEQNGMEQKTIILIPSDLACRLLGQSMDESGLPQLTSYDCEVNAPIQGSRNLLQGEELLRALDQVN

Legend:
Experiment in all cases: cell-based or functional assay
GAL4/HIF 531-584 = GAL4/HIF 531-584 (human, UniProt P04386 1-147 (Saccharomyces cerevisiae entry), [35S]methionine-labeled in the pull-down of paragraph 60 (in vitro translated))
[1] = biological target: HIF-1α (wild-type human HIF-1α expressed from pCMV4/HIF-1α) (human, UniProt Q16665 1-826, limits assumed)
GAL4/HIF 776-826 = GAL4/HIF 776-826 (human, UniProt P04386 1-147 (Saccharomyces cerevisiae entry), [35S]methionine-labeled in the pull-down of paragraph 60 (in vitro translated))

B1: SRC-1 (full-length transcriptional coactivator SRC-1) (other, human, UniProt Q15788 1-1441, looked up)
chain: MSGLGDSSSDPANPDSHKRKGSPCDTLASSTEKRRREQENKYLEELAELLSANISDIDSLSVKPDKCKILKKTVDQIQLMKRMEQEKSTTDDDVQKSDISSSSQGVIEKESLGPLLLEALDGFFFVVNCEGRIVFVSENVTSYLGYNQEELMNTSVYSILHVGDHAEFVKNLLPKSLVNGVPWPQEATRRNSHTFNCRMLIHPPDEPGTENQEACQRYEVMQCFTVSQPKSIQEDGEDFQSCLICIARRLPRPPAITGVESFMTKQDTTGKIISIDTSSLRAAGRTGWEDLVRKCIYAFFQPQGREPSYARQLFQEVMTRGTASSPSYRFILNDGTMLSAHTKCKLCYPQSPDMQPFIMGIHIIDREHSGLSPQDDTNSGMSIPRVNPSVNPSISPAHGVARSSTLPPSNSNMVSTRINRQQSSDLHSSSHSNSSNSQGSFGCSPGSQIVANVALNQGQASSQSSNPSLNLNNSPMEGTGISLAQFMSPRRQVTSGLATRPRMPNNSFPPNISTLSSPVGMTSSACNNNNRSYSNIPVTSLQGMNEGPNNSVGFSASSPVLRQMSSQNSPSRLNIQPAKAESKDNKEIASILNEMIQSDNSSSDGKPLDSGLLHNNDRLSDGDSKYSQTSHKLVQLLTTTAEQQLRHADIDTSCKDVLSCTGTSNSASANSSGGSCPSSHSSLTERHKILHRLLQEGSPSDITTLSVEPDKKDSASTSVSVTGQVQGNSSIKLELDASKKKESKDHQLLRYLLDKDEKDLRSTPNLSLDDVKVKVEKKEQMDPCNTNPTPMTKPTPEEIKLEAQSQFTADLDQFDQLLPTLEKAAQLPGLCETDRMDGAVTSVTIKSEILPASLQSATARPTSRLNRLPELELEAIDNQFGQPGTGDQIPWTNNTVTAINQSKSEDQCISSQLDELLCPPTTVEGRNDEKALLEQLVSFLSGKDETELAELDRALGIDKLVQGGGLDVLSERFPPQQATPPLIMEERPNLYSQPYSSPSPTANLPSPFQGMVRQKPSLGTMPVQVTPPRGAFSPGMGMQPRQTLNRPPAAPNQLRLQLQQRLQGQQQLIHQNRQAILNQFAATAPVGINMRSGMQQQITPQPPLNAQMLAQRQRELYSQQHRQRQLIQQQRAMLMRQQSFGNNLPPSSGLPVQMGNPRLPQGAPQQFPYPPNYGTNPGTPPASTSPFSQLAANPEASLANRNSMVSRGMTGNIGGQFGTGINPQMQQNVFQYPGAGMVPQGEANFAPSLSPGSSMVPMPIPPPQSSLLQQTPPASGYQSPDMKAWQQGAIGNNNVFSQAVQNQPTPAQPGVYNNMSITVSMAGGNTNVQNMNPMMAQMQMSSLQMPGMNTVCPEQINDPALRHTGLYCNQLSSTDLLKTEADGTQQVQQVQVFADVQCTVNLVGGDPYLNQPGPLGTQKPTSGPQTPQAQQKSLLQQLLTE
modifications: [35S]methionine-labeled in the pull-down of paragraph 40 (in vitro translated)
GAL4-responsive reporter gene activity, COS7, hypoxic cells, overexpression of SRC-1 (GAL4/HIF 531-584): 1.5 fold | HRE-dependent reporter gene activity, COS7, normoxic conditions [1]: ~3 fold | GAL4-responsive reporter gene activity, COS7, in the presence of SRC-1 (GAL4/HIF 776-826): 17 fold
